According to patent publication US20130066055A1, “NEW BINDER-DRUG CONJUGATES (ADCS) AND USE THEREOF” (Bayer Intellectual Property GmbH, priority 2011, published 2013):
Changes are numbered by the printed parent chain. No constants are given. Whether binding was seen depends on the method and setting. Some entries that bind do so weakly or less than the wild type.

By UniProt entry, the sequences of proteins in these tests, tags left out. Residues count along the entry.
UniProt O95274, residues 31-326: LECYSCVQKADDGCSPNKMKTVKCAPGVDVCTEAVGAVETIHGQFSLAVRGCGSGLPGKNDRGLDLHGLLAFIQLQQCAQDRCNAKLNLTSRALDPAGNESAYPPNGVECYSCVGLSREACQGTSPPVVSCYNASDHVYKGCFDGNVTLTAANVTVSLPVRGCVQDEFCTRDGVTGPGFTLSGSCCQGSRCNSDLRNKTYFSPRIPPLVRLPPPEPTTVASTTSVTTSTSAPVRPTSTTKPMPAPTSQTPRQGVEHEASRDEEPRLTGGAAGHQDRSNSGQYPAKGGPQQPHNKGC

B1: anti-C4.4a antibody B01-8 (antibody, V domains shown)
VH: EVQLLESGGGLVQPGGSLRLSCAASGFTFSNAWMSWVRQAPGKGLEWVSYISSSGSTIYYADSVKGRFTISRDNSKNTLYLQMNSLRAEDTAVYYCAREGLWAFDYWGQGTLVTVSS
VL: QSVLTQPPSVSGAPGQRVTISCTGSSSNIGAGYVVHWYQQLPGTAPKLLIYDNNKRPSGVPDRFSGSKSGTSASLAISGLRSEDEADYYCAAFDDSLNGPVFGGGTKLTVLG
B2: anti-C4.4a antibody B01-6 (antibody, V domains shown)
VH: B1 VH with N31S, T57S, I58T, Y106G
VL: B1 VL with V10A, A13T, T23S, K55Q, F93Y, G99R
B3: anti-C4.4a antibody B01-5 (antibody, V domains shown)
VH: B1 VH
VL: B1 VL with F93Y, N98S
B4: anti-C4.4a antibody B01-7 (antibody, V domains shown)
VH: B1 VH with Y106K
VL: B1 VL with V10A, A13T, S96R
B5: anti-C4.4a antibody B01-2 (antibody, V domains shown)
VH: B1 VH with N31S, T57S, I58T
VL: B1 VL with Q1E, V10A, A13T, T23S, K55Q, F93W, S96R
B6: anti-C4.4a antibody B01-10 (antibody, V domains shown)
VH: B1 VH with N31S
VL: B1 VL with F93Y, N98S
B7: anti-C4.4a antibody B01-12 (antibody, V domains shown)
VH: B1 VH with N31S, T57S, I58T, Y106K
VL: B1 VL with V10A, A13T, T23S, K55Q, S96R, N98S
B8: anti-C4.4a antibody B01-9 (antibody, V domains shown)
VH: B1 VH with N31S, T57S, I58T, Y106K, S116T
VL: B1 VL with V10A, A13T
B9: anti-C4.4a antibody B01-4 (antibody, V domains shown)
VH: B1 VH
VL: B1 VL with Q1E, F93Y, S96R
B10: anti-C4.4a antibody B01-11 (antibody, V domains shown)
VH: B1 VH with N31S, T57S, I58T, Y106K
VL: B1 VL with V10A, A13T, T23S, K55Q

biological target: C4.4a (UniProt O95274); experiment: competitor M31-B01; method not given

binding, binds:
B1
B2
B3
B4
B5
B6
B7
B8
B9
B10
